Source: patent publication US20180296691A1 (Pfizer, published 2018)
These are yes or no findings as the source states them, for the method shown. Some entries that bind do so weakly or less than the wild type.

Target: recombinant cynomolgus monkey EFNA4 extracellular domain fused to a histidine tag (cynomolgus monkey)
Experiment: SPR (BIAcore 2000), recombinant EFNA4 ECD-His

B1: humanized anti-EFNA4 antibody huE22 (antibody, human IgG1, kappa, V domains shown)
VH: QVQLVQSGAEVKKPGASVKVSCKASGYTFTGYYIHWVRQAPGQGLEWMGWIYPGNFNTKYNERFKGRVTMTTDTSTSTAYMELRSLRSDDTAVYYCAREDGSPYYAMDYWGQGTSVTVSS
VL: DIVMTQTPLSLSVTPGQPASISCRSSQSLVHSNGNTFLYWYLQKPGQSPQLLIYRVSNRFSGVPDRFSGSGSGTDFTLKISRVEAEDVGVYYCFQATHVPWTFGGGTKVEIKR
notes: human IgG1 / kappa; also called huE22 mAb; unconjugated huE22
Which binding does the source give for B1 here?
The binding was “binds”.
